Article PMC12582974
These are yes or no findings as the source states them, for the method shown. Binding seen in cells or lysates may run through a third protein. A yes stands for co-enrichment or nearness to the bait. Other partners may have been found. A no says only that the protein was not detected with the bait.

Molecular target: T1, endogenous WAC (human (endogenous in HEK293T)), Q9BTA9
T1 chain: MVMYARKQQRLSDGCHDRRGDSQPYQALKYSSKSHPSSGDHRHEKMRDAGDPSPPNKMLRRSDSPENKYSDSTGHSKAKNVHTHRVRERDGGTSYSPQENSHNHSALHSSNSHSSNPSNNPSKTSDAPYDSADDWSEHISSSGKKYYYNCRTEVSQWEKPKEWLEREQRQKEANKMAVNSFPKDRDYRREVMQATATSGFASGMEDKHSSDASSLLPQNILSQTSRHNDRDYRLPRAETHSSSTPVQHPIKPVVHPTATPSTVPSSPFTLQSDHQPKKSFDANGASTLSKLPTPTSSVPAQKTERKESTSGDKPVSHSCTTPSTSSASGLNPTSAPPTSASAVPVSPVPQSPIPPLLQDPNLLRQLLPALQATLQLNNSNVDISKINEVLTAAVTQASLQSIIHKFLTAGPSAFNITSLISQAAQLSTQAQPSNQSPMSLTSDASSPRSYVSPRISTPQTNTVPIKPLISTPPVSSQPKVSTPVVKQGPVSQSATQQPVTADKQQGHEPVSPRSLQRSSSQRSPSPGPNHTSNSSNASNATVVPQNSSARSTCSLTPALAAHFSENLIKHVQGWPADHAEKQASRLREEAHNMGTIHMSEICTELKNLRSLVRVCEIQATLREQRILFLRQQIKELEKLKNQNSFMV
Test: affinity purification with mass spectrometry; endogenous WAC immunoprecipitated with a WAC antibody from HEK293T lysate; interactors identified by mass spectrometry
Settings: remark: other sources report otherwise

B1: endogenous TTI2, Q6NXR4 1-508 (protein)
chain: MELDSALEAPSQEDSNLSEELSHSAFGQAFSKILHCLARPEARRGNVKDAVLKDLGDLIEATEFDRLFEGTGARLRGMPETLGQVAKALEKYAAPSKEEEGGGDGHSEAAEKAAQVGLLFLKLLGKVETAKNSLVGPAWQTGLHHLAGPVYIFAITHSLEQPWTTPRSREVAREVLTSLLQVTECGSVAGFLHGENEDEKGRLSVILGLLKPDLYKESWKNNPAIKHVFSWTLQQVTRPWLSQHLERVLPASLVISDDYQTENKILGVHCLHHIVLNVPAADLLQYNRAQVLYHAISNHLYTPEHHLIQAVLLCLLDLFPILEKTLHWKGDGARPTTHCDEVLRLILTHMEPEHRLLLRRTYARNLPAFVNRLGILTVRHLKRLERVIIGYLEVYDGPEEEARLKILETLKLLMQHTWPRVSCRLVVLLKALLKLICDVARDPNLTPESVKSALLQEATDCLILLDRCSQGRVKGLLAKIPQSCEDRKVVNYIRKVQQVSEGAPYNGT
Question: Which binding does the source give for B1 here?
Answer: no binding
